Reference: PMC8792056 (2022)
No constants are given. Whether binding was seen depends on the method and setting. In cells and extracts the contact can be indirect. Some binding calls cover weakened binding; strength is not graded here. Where a sequence is shown, tags or fusion partners need not be part of it.

The chains behind the UniProt entries cited, without tags or fusion partners. Where a name states a change or a piece, a line headed by the entry shows the natural chain unless it says otherwise.
UniProt P35637: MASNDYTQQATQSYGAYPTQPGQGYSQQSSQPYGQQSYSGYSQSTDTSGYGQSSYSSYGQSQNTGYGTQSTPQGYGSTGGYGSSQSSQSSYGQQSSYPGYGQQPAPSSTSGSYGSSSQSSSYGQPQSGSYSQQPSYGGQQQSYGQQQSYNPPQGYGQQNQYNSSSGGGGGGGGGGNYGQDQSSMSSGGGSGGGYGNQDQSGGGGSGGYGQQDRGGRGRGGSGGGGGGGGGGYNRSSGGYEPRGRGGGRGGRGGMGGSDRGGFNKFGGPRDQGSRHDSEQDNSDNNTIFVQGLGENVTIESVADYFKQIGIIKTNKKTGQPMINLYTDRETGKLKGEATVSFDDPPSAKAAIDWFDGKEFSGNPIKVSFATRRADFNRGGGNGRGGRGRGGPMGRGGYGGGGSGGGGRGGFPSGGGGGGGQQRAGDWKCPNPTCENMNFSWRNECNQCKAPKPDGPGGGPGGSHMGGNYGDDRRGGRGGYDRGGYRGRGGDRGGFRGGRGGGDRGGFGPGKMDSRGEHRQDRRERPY

T1: DNAJB14-FL-FLAG (human) (UniProt Q8TBM8)
T1 sequence: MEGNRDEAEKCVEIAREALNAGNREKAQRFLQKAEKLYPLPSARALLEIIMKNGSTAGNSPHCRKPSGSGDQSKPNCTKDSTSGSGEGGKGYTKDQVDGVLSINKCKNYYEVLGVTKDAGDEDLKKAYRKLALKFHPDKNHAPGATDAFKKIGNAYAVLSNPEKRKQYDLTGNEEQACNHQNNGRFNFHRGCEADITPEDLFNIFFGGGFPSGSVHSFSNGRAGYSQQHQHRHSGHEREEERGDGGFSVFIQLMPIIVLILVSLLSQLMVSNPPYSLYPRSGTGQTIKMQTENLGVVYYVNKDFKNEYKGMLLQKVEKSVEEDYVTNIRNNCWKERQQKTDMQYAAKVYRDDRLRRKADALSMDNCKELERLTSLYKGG

B1: DNAJB14-FL-FLAG (protein, UniProt Q8TBM8-1 1-379)
chain: T1 sequence
B2: DNAJB12-FL-mOrange (protein, UniProt Q9NXW2-1 1-375)
chain: MESNKDEAERCISIALKAIQSNQPDRALRFLEKAQRLYPTPRVRALIESLNQKPQTAGDQPPPTDTTHATHRKAGGTDAPSANGEAGGESTKGYTAEQVAAVKRVKQCKDYYEILGVSRGASDEDLKKAYRRLALKFHPDKNHAPGATEAFKAIGTAYAVLSNPEKRKQYDQFGDDKSQAARHGHGHGDFHRGFEADISPEDLFNMFFGGGFPSSNVHVYSNGRMRYTYQQRQDRRDNQGDGGLGVFVQLMPILILILVSALSQLMVSSPPYSLSPRPSVGHIHRRVTDHLGVVYYVGDTFSEEYTGSSLKTVERNVEDDYIANLRNNCWKEKQQKEGLLYRARYFGDTDMYHRAQKMGTPSCSRLSEVQASLHG

Key:
FUS-WT-YFP (human) = FUS-WT-YFP (human) (UniProt P35637); assay: co-IP; HEK293T cells co-transfected with FUS-R521H-YFP or FUS-WT-YFP and FLAG-tagged DNAJB14 forms; RIPA lysis; anti-GFP antibody cross-linked to Dynabeads Protein A, overnight at 4 °C, 4 washes with RIPA; blot with anti-FLAG
FUS-R521H-YFP (human) = FUS-R521H-YFP (human) (UniProt P35637); assay: as above
DNAJB14-FL-FLAG (human) = target: T1, DNAJB14-FL-FLAG (human); assay: co-IP; HEK293T cells co-transfected with FLAG-tagged DNAJB14 forms and DNAJB12-FL-mOrange; lysis in 50 mM HEPES pH 7.9, 0.5% Triton X-100, 5% glycerol, 150 mM NaCl, 2 mM EDTA; anti-FLAG M2 beads 3 h at 4 °C, 7 washes; blot with anti-RFP for mOrange, normalised to the FLAG band

Binder	binding (FUS-WT-YFP (human))	binding (FUS-R521H-YFP (human))	binding (DNAJB14-FL-FLAG (human))
B1	binds	binds	
B2			binds
